These are yes or no findings as the source states them, for the method shown. In cells and extracts the contact can be indirect. Some entries that bind do so weakly or less than the wild type. Where a sequence is shown, tags or fusion partners need not be part of it.
Molecular target: GSK3β-Flag fusion protein (pcGSK3B-Flag) (UniProt P49841)
Assay: co-IP

Sequences of proteins named here, by UniProt entry; tags and fusion partners are left off.
UniProt P49841: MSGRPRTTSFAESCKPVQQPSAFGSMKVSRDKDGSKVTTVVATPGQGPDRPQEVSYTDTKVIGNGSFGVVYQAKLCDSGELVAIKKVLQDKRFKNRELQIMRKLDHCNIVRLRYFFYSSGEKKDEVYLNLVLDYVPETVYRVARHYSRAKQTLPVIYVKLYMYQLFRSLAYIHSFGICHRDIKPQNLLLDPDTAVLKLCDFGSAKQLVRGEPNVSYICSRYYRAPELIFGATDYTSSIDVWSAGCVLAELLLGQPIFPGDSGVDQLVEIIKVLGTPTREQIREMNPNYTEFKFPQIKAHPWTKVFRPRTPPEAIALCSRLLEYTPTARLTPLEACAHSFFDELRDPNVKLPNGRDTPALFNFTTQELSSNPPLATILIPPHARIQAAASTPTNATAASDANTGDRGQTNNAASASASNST

B1: TBK1 co-precipitated with GSK3β-Flag from HEK293 cells (enzyme, UniProt Q9UHD2 1-729)
chain: MQSTSNHLWLLSDILGQGATANVFRGRHKKTGDLFAIKVFNNISFLRPVDVQMREFEVLKKLNHKNIVKLFAIEEETTTRHKVLIMEFCPCGSLYTVLEEPSNAYGLPESEFLIVLRDVVGGMNHLRENGIVHRDIKPGNIMRVIGEDGQSVYKLTDFGAARELEDDEQFVSLYGTEEYLHPDMYERAVLRKDHQKKYGATVDLWSIGVTFYHAATGSLPFRPFEGPRRNKEVMYKIITGKPSGAISGVQKAENGPIDWSGDMPVSCSLSRGLQVLLTPVLANILEADQEKCWGFDQFFAETSDILHRMVIHVFSLQQMTAHKIYIHSYNTATIFHELVYKQTKIISSNQELIYEGRRLVLEPGRLAQHFPKTTEENPIFVVSREPLNTIGLIYEKISLPKVHPRYDLDGDASMAKAITGVVCYACRIASTLLLYQELMRKGIRWLIELIKDDYNETVHKKTEVVITLDFCIRNIEKTVKVYEKLMKINLEAAELGEISDIHTKLLRLSSSQGTIETSLQDIDSRLSPGGSLADAWAHQEGTHPKDRNVEKLQVLLNCMTEIYYQFKKDKAERRLAYNEEQIHKFDKQKLYYHATKAMTHFTDECVKKYEAFLNKSEEWIRKMLHLRKQLLSLTNQCFDIEEEVSKYQEYTNELQETLPQKMFTASSGIKHTMTPIYPSSNTLVEMTLGMKKLKEEMEGVVKELAENNHILERFGSLTMDGGLRNVDCL
binding: binds

— doi:10.1101/2023.02.03.527086
